Data: paper PMC4086519, “Anti-Trichophyton Activity of Protocatechuates and Their Synergism with Fluconazole” (Evidence-based Complementary and Alternative Medicine : eCAM, 2014)

Tested on: NOK (oral human keratinocyte) cell lines
Test: Sulphorhodamine B cytotoxicity assay
Assay type: cell-based
Procedure: The cytotoxicity of sixteen semisynthetic compounds derived from protocatechuic acid was assessed using a sulphorhodamine B assay in NOK (oral human keratinocyte) cell lines obtained from the American Type Culture Collection (Manassas, VA, USA). The strains were maintained in bottles appropriate for cell culture with keratinocyte serum free medium (Gibco, Life Technologies) and incubated in standard conditions of 37°C and 5% CO2. Cell concentrations ranging from 2.5 to 5.0 × 10^4 cells/mL were used for the formation of cell monolayers. The concentrations of pure substances were kept in contact with the cells for 24 hours. After the incubation period, the cells were treated with the sulphorhodamine B reagent (Sigma-Aldrich, St. Louis, MO, USA) as previously described by Skehan et al., with some modifications.

Row | SMILES | SI (IC50/MFC) (NOK IC50 / MFC Tm1) | SI (IC50/MFC) (NOK IC50 / MFC Tm2) | SI (IC50/MFC) (NOK IC50 / MFC Tm3) | SI (IC50/MFC) (NOK IC50 / MFC Tr1) | SI (IC50/MFC) (NOK IC50 / MFC Tr2) | SI (IC50/MFC) (NOK IC50 / MFC Tr3)
1 | CCCCCCCOC(=O)c1ccc(O)c(O)c1 [Protocatechuate heptyl, protocatechuate heptyl] | 20.0 | 80.5 | 20.0 | 40.0 | 40.0 | 40.0
2 | CCCCCCOC(=O)c1ccc(O)c(O)c1 [Protocatechuate hexyl, hexyl protocatechuate] | 17.0 | 17.0 | 8.5 | 17.0 | 17.0 | 17.0
3 | CCCCCCCCCOC(=O)c1ccc(O)c(O)c1 [Protocatechuate nonyl, nonyl protocatechuate] | 13.2 | 13.2 | 13.2 | 26.7 | 13.2 | 13.2
4 | CCCCCCCCOC(=O)c1ccc(O)c(O)c1 [Protocatechuate octyl, octyl protocatechuate] | 13.8 | 27.7 | 13.8 | 27.7 | 7.0 | 27.7
5 | CCCCCOC(=O)c1ccc(O)c(O)c1 [Protocatechuate pentyl, pentyl protocatechuate] | 3.7 | 7.3 | 7.3 | 7.3 | 7.3 | 7.3
